This is one part of the list.
Tests used:
Assay in all cases: log2 fold change, soluble protein after heating vs DMSO (PISA); higher = thermal stabilisation; K562 lysate, 10 uM; active = over 0.2 and 3.5 SD of the protein, either way, in both replicates (recomputed)
[1] = compound: Cc1cn(-c2cc(NC(=O)c3ccc(C)c(Nc4nccc(-c5cccnc5)n4)c3)cc(C(F)(F)F)c2)cn1 [nilotinib]
How it was run: (§1)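 Dounce homogenisation of K562 pellets in PBS pH 7.4 with 1 mM MgCl2 produced a crude extract, used at 1 mg/mL protein. Exposure to 10 μM compound lasted 30 min, and aliquots were then heated for 3 min across 48°C-58°C, pooled and brought to 0.5% NP-40 at 4°C. The supernatant after 21,000xg for 90 min was quantified by TMTpro 16plex LC-MS/MS with channel sums equalised. Duplicate values are given as log-two fold change in thermal stability relative to solvent controls.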

Chains of the proteins cited; added tags and fusions are not shown. Lines headed by an entry give the natural chain unless they say otherwise; changes in a name come on top.
UniProt Q8TBF4: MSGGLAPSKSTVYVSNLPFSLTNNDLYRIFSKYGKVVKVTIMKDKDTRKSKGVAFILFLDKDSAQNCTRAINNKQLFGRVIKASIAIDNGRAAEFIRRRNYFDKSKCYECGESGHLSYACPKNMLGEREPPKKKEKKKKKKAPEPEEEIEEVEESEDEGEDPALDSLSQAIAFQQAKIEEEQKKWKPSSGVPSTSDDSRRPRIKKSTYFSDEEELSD
UniProt Q8N3Z6: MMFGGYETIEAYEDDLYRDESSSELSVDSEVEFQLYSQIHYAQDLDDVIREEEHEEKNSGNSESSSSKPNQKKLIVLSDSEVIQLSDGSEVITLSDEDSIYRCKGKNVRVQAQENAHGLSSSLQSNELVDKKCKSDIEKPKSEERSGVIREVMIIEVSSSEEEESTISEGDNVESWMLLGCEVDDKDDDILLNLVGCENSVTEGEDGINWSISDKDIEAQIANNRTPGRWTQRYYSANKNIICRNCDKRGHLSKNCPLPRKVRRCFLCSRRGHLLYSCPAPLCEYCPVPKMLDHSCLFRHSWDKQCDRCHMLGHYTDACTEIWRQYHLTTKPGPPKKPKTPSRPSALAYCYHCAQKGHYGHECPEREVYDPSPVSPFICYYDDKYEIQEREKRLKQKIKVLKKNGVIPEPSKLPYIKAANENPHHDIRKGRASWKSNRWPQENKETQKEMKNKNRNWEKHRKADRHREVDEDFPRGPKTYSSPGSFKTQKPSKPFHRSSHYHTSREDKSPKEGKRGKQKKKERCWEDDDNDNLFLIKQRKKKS
UniProt O95365: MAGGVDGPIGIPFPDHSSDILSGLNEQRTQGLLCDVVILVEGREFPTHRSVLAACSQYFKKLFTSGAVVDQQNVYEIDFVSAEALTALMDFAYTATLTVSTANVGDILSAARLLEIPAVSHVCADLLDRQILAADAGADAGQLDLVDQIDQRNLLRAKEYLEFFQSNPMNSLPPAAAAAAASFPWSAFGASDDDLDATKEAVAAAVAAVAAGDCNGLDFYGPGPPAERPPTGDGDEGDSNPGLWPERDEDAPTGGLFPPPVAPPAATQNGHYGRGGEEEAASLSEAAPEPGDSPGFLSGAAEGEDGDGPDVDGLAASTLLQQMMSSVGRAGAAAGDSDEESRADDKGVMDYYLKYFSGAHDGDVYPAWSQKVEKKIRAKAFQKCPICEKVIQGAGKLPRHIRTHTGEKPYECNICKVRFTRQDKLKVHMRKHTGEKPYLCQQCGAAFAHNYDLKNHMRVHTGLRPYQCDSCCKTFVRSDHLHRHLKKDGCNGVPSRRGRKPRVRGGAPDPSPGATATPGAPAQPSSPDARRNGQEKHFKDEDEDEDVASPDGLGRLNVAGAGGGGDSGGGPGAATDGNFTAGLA
UniProt Q9BQ24: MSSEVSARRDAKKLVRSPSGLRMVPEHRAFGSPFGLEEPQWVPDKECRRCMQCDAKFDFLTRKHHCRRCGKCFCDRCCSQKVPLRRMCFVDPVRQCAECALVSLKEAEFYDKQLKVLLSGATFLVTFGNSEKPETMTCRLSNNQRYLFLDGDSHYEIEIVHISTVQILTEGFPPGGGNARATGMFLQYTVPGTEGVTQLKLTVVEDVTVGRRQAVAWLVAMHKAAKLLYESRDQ
UniProt Q9HBF4: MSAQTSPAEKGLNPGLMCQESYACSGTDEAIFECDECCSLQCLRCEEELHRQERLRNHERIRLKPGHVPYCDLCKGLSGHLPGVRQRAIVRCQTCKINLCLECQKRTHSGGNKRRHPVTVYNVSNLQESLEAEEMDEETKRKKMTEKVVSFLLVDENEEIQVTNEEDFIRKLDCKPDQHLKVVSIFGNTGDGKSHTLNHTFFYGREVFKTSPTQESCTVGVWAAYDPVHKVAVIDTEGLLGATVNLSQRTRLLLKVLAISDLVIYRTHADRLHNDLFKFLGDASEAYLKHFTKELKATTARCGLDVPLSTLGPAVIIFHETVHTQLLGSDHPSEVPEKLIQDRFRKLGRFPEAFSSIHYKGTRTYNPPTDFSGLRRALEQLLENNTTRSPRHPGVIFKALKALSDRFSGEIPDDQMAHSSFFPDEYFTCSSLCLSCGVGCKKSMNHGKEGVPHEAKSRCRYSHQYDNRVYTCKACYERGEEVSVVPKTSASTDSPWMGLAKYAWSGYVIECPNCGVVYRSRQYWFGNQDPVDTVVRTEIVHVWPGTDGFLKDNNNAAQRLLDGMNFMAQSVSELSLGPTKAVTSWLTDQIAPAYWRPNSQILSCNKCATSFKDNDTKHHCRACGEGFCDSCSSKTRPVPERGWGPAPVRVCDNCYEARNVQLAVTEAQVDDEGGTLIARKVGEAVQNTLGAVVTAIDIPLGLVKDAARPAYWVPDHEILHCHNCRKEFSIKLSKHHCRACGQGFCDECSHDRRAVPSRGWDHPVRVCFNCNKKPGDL
UniProt Q9Y548: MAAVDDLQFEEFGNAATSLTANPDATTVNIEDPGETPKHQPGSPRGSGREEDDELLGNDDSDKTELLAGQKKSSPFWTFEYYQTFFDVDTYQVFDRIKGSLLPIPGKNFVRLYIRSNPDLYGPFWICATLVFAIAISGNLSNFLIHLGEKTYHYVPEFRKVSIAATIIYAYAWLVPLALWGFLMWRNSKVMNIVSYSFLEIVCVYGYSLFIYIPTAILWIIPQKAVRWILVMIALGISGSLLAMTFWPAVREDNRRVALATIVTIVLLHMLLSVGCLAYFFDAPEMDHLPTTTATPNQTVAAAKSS
UniProt Q8IZN3: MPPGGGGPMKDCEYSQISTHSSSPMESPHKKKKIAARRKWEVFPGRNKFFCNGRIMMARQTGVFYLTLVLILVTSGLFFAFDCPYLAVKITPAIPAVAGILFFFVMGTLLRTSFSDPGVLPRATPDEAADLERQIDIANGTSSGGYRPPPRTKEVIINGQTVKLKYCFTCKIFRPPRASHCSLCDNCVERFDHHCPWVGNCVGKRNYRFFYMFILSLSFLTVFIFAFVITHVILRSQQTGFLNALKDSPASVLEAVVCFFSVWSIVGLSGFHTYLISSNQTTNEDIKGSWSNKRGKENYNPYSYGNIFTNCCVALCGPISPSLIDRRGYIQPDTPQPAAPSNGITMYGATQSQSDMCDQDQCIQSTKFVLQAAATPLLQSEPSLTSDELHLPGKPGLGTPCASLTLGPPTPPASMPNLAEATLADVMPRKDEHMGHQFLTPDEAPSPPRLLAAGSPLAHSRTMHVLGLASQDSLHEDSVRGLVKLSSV
UniProt O43542: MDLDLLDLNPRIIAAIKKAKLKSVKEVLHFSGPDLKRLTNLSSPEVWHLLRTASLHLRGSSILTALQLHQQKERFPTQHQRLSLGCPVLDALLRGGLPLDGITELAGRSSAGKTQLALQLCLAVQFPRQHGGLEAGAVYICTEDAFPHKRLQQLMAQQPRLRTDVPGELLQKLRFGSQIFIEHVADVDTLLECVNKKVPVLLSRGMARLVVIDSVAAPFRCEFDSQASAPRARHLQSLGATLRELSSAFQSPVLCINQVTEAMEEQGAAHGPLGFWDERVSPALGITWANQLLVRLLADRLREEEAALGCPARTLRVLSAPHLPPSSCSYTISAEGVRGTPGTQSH
UniProt Q96K21: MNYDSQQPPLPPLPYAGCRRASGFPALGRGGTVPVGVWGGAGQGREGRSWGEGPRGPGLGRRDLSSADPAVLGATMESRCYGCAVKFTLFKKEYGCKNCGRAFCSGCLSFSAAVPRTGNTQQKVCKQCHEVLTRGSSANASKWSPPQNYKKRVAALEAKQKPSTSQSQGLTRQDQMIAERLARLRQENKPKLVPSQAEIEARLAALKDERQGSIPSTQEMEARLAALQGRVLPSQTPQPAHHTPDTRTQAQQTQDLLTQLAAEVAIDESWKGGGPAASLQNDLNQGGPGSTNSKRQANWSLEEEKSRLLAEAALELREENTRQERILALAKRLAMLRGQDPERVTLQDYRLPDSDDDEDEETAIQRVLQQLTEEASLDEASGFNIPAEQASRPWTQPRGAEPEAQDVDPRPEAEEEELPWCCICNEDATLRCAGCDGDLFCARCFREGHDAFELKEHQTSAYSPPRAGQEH
UniProt Q68DK2: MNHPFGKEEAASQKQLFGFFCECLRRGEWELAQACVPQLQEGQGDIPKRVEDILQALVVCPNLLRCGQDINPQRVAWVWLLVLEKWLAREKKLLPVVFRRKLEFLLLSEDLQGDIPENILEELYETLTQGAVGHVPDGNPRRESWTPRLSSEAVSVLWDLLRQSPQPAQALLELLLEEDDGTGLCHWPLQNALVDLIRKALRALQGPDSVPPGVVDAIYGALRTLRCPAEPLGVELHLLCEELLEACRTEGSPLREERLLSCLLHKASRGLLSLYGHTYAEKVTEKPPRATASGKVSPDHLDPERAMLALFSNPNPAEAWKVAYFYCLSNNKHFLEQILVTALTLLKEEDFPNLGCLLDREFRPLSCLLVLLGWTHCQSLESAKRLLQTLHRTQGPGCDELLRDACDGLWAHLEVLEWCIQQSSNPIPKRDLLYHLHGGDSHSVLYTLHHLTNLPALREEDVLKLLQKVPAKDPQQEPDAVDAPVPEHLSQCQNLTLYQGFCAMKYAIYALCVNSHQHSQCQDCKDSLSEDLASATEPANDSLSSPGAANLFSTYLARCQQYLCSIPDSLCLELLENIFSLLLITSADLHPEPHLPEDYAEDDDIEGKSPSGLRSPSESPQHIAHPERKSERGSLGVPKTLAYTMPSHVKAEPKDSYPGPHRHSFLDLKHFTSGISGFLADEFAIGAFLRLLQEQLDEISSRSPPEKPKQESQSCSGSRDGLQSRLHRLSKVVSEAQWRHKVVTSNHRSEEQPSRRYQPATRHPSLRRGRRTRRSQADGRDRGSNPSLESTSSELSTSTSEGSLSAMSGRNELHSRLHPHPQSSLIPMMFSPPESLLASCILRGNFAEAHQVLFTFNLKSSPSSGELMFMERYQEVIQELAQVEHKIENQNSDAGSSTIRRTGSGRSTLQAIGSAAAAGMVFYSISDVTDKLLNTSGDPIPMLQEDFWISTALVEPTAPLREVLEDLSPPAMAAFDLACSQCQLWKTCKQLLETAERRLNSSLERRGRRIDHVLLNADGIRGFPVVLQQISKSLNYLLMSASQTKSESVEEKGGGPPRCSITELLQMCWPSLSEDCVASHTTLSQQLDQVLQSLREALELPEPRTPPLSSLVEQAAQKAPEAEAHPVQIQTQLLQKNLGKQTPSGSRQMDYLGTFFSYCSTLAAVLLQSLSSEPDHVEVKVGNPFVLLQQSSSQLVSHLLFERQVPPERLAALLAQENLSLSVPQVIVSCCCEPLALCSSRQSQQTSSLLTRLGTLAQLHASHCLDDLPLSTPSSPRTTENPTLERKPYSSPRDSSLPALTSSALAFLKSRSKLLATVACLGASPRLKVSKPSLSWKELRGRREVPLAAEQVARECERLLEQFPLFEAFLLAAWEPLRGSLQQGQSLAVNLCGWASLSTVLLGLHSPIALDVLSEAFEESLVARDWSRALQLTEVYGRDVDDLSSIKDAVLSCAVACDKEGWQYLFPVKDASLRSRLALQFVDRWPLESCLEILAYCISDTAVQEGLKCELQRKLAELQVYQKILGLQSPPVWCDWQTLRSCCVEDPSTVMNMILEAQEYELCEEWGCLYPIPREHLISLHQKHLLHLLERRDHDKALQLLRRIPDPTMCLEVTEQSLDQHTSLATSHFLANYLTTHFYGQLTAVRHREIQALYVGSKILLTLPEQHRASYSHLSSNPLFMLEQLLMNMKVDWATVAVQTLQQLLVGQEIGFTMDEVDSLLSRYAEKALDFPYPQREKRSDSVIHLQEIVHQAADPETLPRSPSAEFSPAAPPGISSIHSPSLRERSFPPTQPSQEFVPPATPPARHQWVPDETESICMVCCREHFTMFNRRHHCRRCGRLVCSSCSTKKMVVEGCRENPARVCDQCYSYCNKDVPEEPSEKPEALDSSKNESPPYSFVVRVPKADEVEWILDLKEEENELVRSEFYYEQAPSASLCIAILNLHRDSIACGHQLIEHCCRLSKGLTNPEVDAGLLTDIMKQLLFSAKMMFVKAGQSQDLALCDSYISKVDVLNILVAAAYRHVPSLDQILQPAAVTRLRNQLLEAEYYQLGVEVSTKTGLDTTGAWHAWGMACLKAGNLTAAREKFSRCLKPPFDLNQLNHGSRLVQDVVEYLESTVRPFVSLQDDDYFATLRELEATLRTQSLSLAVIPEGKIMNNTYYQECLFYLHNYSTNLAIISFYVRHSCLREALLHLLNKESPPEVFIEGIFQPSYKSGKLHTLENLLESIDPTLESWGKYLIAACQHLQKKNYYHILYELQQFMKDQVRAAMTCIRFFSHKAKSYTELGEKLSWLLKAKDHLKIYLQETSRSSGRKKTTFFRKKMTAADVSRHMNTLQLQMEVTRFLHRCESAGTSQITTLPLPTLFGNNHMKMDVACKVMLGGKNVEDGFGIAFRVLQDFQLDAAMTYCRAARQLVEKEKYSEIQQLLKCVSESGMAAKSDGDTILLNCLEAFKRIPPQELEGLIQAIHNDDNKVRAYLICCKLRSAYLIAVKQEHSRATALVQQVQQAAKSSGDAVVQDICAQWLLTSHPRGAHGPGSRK

[2] = compound: Cc1nc(Nc2n[nH]c3c2CN(C(=O)N[C@H](CN(C)C)c2ccccc2)C3(C)C)c2sccc2n1
How it was run: as §1

[3] = compound: Cc1nc(Nc2ncc(C(=O)Nc3c(C)cccc3Cl)s2)cc(N2CCN(CCO)CC2)n1 [dasatinib]
How it was run: as §1

[4] = compound: Cc1ncc(-c2ccnc(Nc3ccc(S(C)(=O)=O)cc3)n2)n1C(C)C
How it was run: as §1

[5] = compound: Cn1cc(-c2ccc3c(c2)CCN3C(=O)Cc2cccc(C(F)(F)F)c2)c2c(N)ncnc21
How it was run: as §1

[6] = compound: Cn1cc(CNCC2CCN(c3ncc(C(=O)NO)cn3)CC2)c2ccccc21 [quisinostat]
How it was run: as §1

[7] = compound: Cn1cncc1[C@@](N)(c1ccc(Cl)cc1)c1ccc2c(c1)c(-c1cccc(Cl)c1)cc(=O)n2C [tipifarnib]
How it was run: as §1

[8] = compound: NC(=O)Nc1cc(-c2cccc(F)c2)sc1C(=O)N[C@H]1CCCNC1
How it was run: as §1

[9] = compound: NC(=O)c1cnc(N[C@@H]2CCCC[C@@H]2N)nc1Nc1cccc(-n2nccn2)c1
How it was run: as §1

[10] = compound: NC1(c2ccc(-c3nc4ccn5c(=O)[nH]nc5c4cc3-c3ccccc3)cc2)CCC1
How it was run: as §1

[11] = compound: NCC(=O)Nc1ccc(-n2nc(C(F)(F)F)cc2-c2ccc3c(ccc4ccccc43)c2)cc1
How it was run: as §1

[12] = compound: O=C(CCCCCCC(=O)Nc1ccccc1)NO [vorinostat]
How it was run: as §1

[13] = compound: O=C(O)c1ccc2c(c1)nc(Nc1cccc(Cl)c1)c1ccncc12 [silmitasertib]
How it was run: as §1

[14] = compound: O=C1NC(=O)C(c2cnc3ccccn23)=C1c1cn2c3c(cc(F)cc13)CN(C(=O)N1CCCCC1)CC2
How it was run: as §1

[15] = compound: c1cn2cc(-c3ccc4cn[nH]c4c3)nc(Nc3ccc(N4CCOCC4)cc3)c2n1 [entospletinib]
How it was run: as §1

Measured: log2 fold change

ZC3HAV1 (UniProt Q7Z2W4)
inactive: [1] -0.013 | [2] 0.024 | [3] -0.023 | [4] 0.028 | [5] 0.056 | [6] -0.003 | [7] -0.025 | [8] 0.043 | [9] -0.008 | [10] 0.014 | [11] 0.009 | [12] -0.111 | [13] 0.039 | [14] 0.018 | [15] 0.017

ZCRB1 (UniProt Q8TBF4)
inactive: [1] -0.139 | [2] -0.061 | [3] 0.052 | [4] 0.127 | [5] 0.004 | [6] -0.024 | [7] 0.185 | [8] 0.05 | [9] 0.01 | [10] -0.065 | [12] 0.193 | [13] 0.063 | [14] -0.002

ZCCHC7 (UniProt Q8N3Z6)
inactive: [1] -0.031 | [2] -0.108 | [3] -0.042 | [4] 0.03 | [5] 0.028 | [6] 0.013 | [7] -0.042 | [8] -0.051 | [14] -0.118

ZBTB7A (UniProt O95365)
inactive: [3] -0.035 | [5] 0.055 | [6] 0.056 | [8] -0.034 | [9] 0.115 | [10] 0.018 | [11] -0.078 | [12] 0.033 | [13] -0.026 | [14] 0.238 | [15] -0.057

ZFYVE21 isoform 2 (UniProt Q9BQ24)
inactive: [1] -0.031 | [2] 0.027 | [3] -0.054 | [4] 0.024 | [5] -0.083 | [6] 0.002 | [7] 0.023 | [8] -0.109 | [9] 0.09 | [11] -0.05 | [14] 0.047 | [15] -0.04

ZFYVE1 (UniProt Q9HBF4)
inactive: [1] 0.203 | [2] -0.055 | [3] 0.084 | [4] -0.191 | [5] -0.02 | [6] -0.256 | [7] 0.05 | [8] -0.002 | [9] -0.006 | [10] 0 | [12] 0.109 | [13] 0.017 | [14] -0.069

YEATS2 (UniProt Q9ULM3)
inactive: [1] -0.065 | [2] 0.169 | [4] 0 | [6] -0.06 | [7] 0.015 | [8] 0.088 | [9] -0.06 | [10] -0.041 | [11] 0.043 | [12] -0.278 | [13] -0.062 | [14] 0.005 | [15] -0.066

YIPF1 (UniProt Q9Y548)
inactive: [1] 0.016 | [2] -0.026 | [3] -0.001 | [4] 0 | [5] 0.056 | [6] -0.021 | [7] -0.006 | [8] 0.061 | [9] -0.015 | [14] 0.081

ZDHHC17 (UniProt Q8IUH5)
inactive: [1] -0.164 | [2] 0.039 | [3] -0.096 | [4] -0.115 | [5] -0.028 | [6] 0.045 | [7] 0.118 | [8] -0.118 | [9] -0.047 | [11] 0.065 | [14] -0.067 | [15] 0.009

YAE1 (UniProt Q9NRH1)
inactive: [1] 0.01 | [2] 0.077 | [3] 0.056 | [4] 0.083 | [5] 0 | [6] -0.031 | [7] 0.064 | [8] 0.029 | [10] 0.092 | [11] 0.036 | [12] -0.044 | [13] -0.018 | [14] -0.015 | [15] 0.059

ZDHHC14 (UniProt Q8IZN3)
inactive: [1] -0.029 | [2] -0.072 | [3] -0.054 | [4] 0.061 | [5] 0.003 | [6] -0.014 | [7] 0.029 | [8] 0.071 | [9] -0.072 | [11] 0.013 | [14] -0.094 | [15] -0.018

ZCCHC17 (UniProt Q9NP64)
inactive: [1] -0.042 | [2] -0.045 | [3] -0.444 | [4] 0.044 | [5] -0.151 | [6] 0.009 | [7] 0.059 | [8] -0.006 | [9] -0.051 | [10] 0.054 | [11] 0.001 | [12] -0.049 | [13] 0.044 | [14] 0.02 | [15] -0.1

XRCC3 (UniProt O43542)
inactive: [1] 0.019 | [2] 0.002 | [3] -0.047 | [4] 0.035 | [5] 0.056 | [6] -0.017 | [7] -0.028 | [8] 0.016 | [10] -0.026 | [11] 0.01 | [12] -0.155 | [13] 0.02 | [14] 0.013

ZBTB11 (UniProt O95625)
inactive: [1] -0.045 | [2] 0.019 | [4] -0.034 | [6] -0.002 | [7] -0.01 | [8] 0 | [9] 0.194 | [10] 0.142 | [11] -0.122 | [12] -0.1 | [13] -0.015 | [14] 0.148

ZFYVE19 (UniProt Q96K21)
inactive: [1] 0.014 | [2] -0.001 | [3] 0.007 | [4] 0.053 | [5] -0.041 | [6] -0.01 | [7] 0.006 | [8] -0.003 | [9] 0.014 | [10] 0.003 | [11] 0.026 | [12] 0.105 | [13] 0.002 | [14] 0.01 | [15] -0.012

ZFYVE26 (UniProt Q68DK2)
inactive: [1] -0.009 | [2] -0.107 | [4] 0.163 | [6] -0.087 | [7] 0.107 | [8] 0.121 | [9] 0.114 | [10] -0.102 | [11] 0.07 | [12] -0.367 | [13] 0.015 | [14] 0.013

ZCCHC9 (UniProt Q8N567)
inactive: [3] 0.075 | [5] -0.052 | [6] -0.026 | [8] 0.014 | [9] 0.002 | [10] -0.049 | [11] -0.015 | [12] 0.123 | [13] -0.118 | [14] 0.011 | [15] -0.025

ZBTB24 (UniProt O43167)
inactive: [1] 0.032 | [2] -0.243 | [3] -0.038 | [4] 0.099 | [5] 0.014 | [6] 0.003 | [7] -0.114 | [8] 0.004 | [9] -0.021 | [10] 0.032 | [12] -0.041 | [13] -0.076 | [14] 0.017 | [15] 0.022

ZEB1 isoform 2 (UniProt P37275)
inactive: [3] -0.263 | [5] 0.047 | [6] -0.346 | [8] 0.011 | [9] -0.092 | [10] 0.009 | [11] -0.181 | [12] 0.085 | [13] 0.037 | [14] -0.031

YWHAZ (UniProt E7ESK7)
inactive: [3] -0.085 | [5] -0.059 | [6] 0.082 | [8] 0.093 | [9] -0.063 | [10] 0.2 | [11] -0.005 | [12] 0.155 | [13] -0.196 | [14] 0.188 | [15] -0.134

ZEB2 (UniProt O60315)
inactive: [1] 0.196 | [2] 0.168 | [3] -0.015 | [4] -0.14 | [5] 0.013 | [6] -0.013 | [7] -0.18 | [8] 0.006 | [9] 0.058 | [10] 0.03 | [11] 0.011 | [12] -0.122 | [13] -0.038 | [14] -0.033 | [15] -0.076

YTHDC1 (UniProt Q96MU7)
inactive: [1] -0.134 | [2] 0.207 | [3] 0.122 | [4] 0.077 | [5] 0.26 | [6] 0.038 | [7] 0.021 | [8] 0.006 | [9] -0.071 | [11] -0.349 | [14] 0.041 | [15] 0.156

ZFP36L2 (UniProt P47974)
inactive: [1] -0.141 | [2] 0.011 | [3] -0.417 | [4] 0.05 | [5] 0.013 | [6] -0.306 | [7] 0.044 | [8] 0.02 | [11] 0.07 | [14] 0.094 | [15] 0.044

2 neighbouring entries out of the list so far, for reference:
ZCCHC17 (UniProt Q9NP64)
inactive: [1] -0.042 | [2] -0.045 | [3] -0.444 | [4] 0.044 | [5] -0.151 | [6] 0.009 | [7] 0.059 | [8] -0.006 | [9] -0.051 | [10] 0.054 | [11] 0.001 | [12] -0.049 | [13] 0.044 | [14] 0.02 | [15] -0.1

XRCC3 (UniProt O43542)
inactive: [1] 0.019 | [2] 0.002 | [3] -0.047 | [4] 0.035 | [5] 0.056 | [6] -0.017 | [7] -0.028 | [8] 0.016 | [10] -0.026 | [11] 0.01 | [12] -0.155 | [13] 0.02 | [14] 0.013

The list goes on:

ZC3H7A (UniProt Q8IWR0)
inactive: [1] -0.019 | [2] 0.054 | [3] -0.028 | [4] -0.023 | [5] 0.078 | [6] -0.059 | [7] -0.032 | [8] 0.075 | [10] -0.009 | [11] 0.009 | [12] -0.164 | [13] 0.03 | [14] -0.043 | [15] 0.031

From the supplement of paper PMC10849652
